These results are taken from paper PMC3280250, “Functional Redundancy of Two Pax-Like Proteins in Transcriptional Activation of Cyst Wall Protein Genes in Giardia lamblia”.

Protein sequences, listed by entry. Tags and fused reporters are not part of them. Lines headed by an entry give the natural chain unless they say otherwise; changes in a name come on top.
UniProt Q8IS82: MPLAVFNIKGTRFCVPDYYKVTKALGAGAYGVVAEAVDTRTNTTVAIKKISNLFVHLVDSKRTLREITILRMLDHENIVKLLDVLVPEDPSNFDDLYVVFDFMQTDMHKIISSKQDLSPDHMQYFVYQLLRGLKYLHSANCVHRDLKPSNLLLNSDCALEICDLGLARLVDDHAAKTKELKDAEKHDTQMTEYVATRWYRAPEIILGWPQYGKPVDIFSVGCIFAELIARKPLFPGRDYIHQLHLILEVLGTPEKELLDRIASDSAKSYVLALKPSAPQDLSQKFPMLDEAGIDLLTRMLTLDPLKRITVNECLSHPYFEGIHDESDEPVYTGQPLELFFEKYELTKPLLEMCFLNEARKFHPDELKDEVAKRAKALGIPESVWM
UniProt A8BSN3: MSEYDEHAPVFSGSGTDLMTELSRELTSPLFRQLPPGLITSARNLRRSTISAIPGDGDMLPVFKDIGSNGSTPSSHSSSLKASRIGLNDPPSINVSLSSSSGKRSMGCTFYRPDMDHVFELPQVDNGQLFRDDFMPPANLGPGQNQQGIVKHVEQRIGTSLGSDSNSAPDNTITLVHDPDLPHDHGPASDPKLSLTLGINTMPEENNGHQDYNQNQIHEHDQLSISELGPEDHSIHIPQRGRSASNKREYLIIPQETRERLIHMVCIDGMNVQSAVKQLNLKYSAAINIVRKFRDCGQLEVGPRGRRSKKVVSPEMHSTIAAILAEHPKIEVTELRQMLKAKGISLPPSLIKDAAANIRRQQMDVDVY
UniProt A8B733: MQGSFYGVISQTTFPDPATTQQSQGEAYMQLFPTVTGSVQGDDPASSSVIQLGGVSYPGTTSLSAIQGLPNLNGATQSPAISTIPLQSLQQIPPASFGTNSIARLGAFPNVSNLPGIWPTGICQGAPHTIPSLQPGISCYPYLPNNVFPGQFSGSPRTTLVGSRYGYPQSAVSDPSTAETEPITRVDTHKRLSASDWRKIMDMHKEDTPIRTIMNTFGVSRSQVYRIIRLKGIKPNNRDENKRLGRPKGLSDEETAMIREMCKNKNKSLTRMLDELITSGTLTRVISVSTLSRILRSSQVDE

No constants are given. Whether binding was seen depends on the method and setting. Binding seen in cells or lysates may run through a third protein. Binding calls can cover weak binding; strength is not graded here.

For the assay, the target named is HA-tagged ERK1 (extracellular signal-related kinase 1) of Giardia lamblia (Giardia lamblia) (UniProt Q8IS82). In words: co-IP; lysates (luciferase lysis buffer, glass beads) of 5'Δ5N-Pac, pPERK1 and pPERK1m stable transfectants after 24 h in encystation medium; anti-HA antibody conjugated to beads; beads washed three times; Western blot with anti-HA, anti-Pax2 and anti-Pax1. (In general: In western blotting, separated proteins are transferred to a membrane and probed.)

“Giardia lamblia Pax1 protein (from UniProt A8BSN3)”: the binding entry is recorded as “binds”. The entry for “Giardia lamblia Pax2 protein (from UniProt A8B733)” is “binds”.
